Laboratory results taken from publication PMC10149453, “Three segment ligation of a 104 kDa multi-domain protein by SrtA and OaAEP1” (Journal of Biomolecular Nmr, 2022).
No constants are given. Whether binding was seen depends on the method and setting. Some results given as binding are weak or reduced against the parent protein; the word gives no strength.

Protein sequences, listed by entry. Tags and fused reporters are not part of them. Lines headed by an entry give the natural chain unless they say otherwise; changes in a name come on top.
UniProt P58301: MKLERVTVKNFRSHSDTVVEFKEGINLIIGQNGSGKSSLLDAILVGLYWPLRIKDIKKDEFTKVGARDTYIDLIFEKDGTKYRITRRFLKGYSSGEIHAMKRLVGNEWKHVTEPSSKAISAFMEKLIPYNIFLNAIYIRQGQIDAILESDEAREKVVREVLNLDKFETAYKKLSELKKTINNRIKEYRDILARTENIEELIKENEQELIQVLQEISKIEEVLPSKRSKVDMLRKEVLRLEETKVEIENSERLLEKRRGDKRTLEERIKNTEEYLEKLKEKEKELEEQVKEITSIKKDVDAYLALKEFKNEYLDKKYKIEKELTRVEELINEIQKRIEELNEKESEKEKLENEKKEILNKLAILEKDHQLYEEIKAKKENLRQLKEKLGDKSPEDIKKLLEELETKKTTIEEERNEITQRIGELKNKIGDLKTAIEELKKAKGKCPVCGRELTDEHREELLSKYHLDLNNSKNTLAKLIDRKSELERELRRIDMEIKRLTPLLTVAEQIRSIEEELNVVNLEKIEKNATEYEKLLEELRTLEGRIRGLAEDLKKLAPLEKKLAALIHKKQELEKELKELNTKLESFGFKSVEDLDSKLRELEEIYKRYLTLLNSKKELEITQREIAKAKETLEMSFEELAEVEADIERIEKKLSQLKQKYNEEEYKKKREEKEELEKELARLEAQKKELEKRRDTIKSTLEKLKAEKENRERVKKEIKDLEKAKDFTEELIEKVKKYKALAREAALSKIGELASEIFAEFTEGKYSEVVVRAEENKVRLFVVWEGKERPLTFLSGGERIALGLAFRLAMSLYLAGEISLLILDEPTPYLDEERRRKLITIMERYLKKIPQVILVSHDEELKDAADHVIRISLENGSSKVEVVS

Target: (MK-6HisTEV) Pf Rad50 C-Terminal coiled-coil-NBD (aa 503 – 882) (P. furiosus) (UniProt P58301)
Assay: co-purification on a Ni affinity column after co-expression; Ncc (no tag) and (6HisTEV)ccC co-expressed in E. coli; purified through a HisTrap HP column by the 6His tag of ccC

binding: binds
Substance: Pf Rad50 N-terminal NBD-coiled-coil (aa 1 – 386)-NAL (from UniProt P58301 1-386) (domain or fragment)
